Results from patent US5189018A, “Method for reduction of central nervous system (CNS) edema resulting from head and spinal cord trauma” (Wayne State University, priority 1991, dated 1993).
At least one peptide structure holds a part that was inferred or is arguable (an end, a ring closure or a residue). Non-standard residues stand in square brackets, D forms with d. Residues, ends and D or L forms follow the SMILES beside them. Met(O2) = CS(=O)(=O)CC[C@H](N)C(=O)O

Assays:
[1] = tested on: blood brain barrier permeability; format: in vivo, rat (Wistar)
Text: (§1) Applicant has developed a reliable physiologic model of potentially reversible, controlled fixed and closed-head injury in the laboratory rat (Wistar, Harlan Sprague-Dawley, Inc. Indianapolis, Ind.) that mimics many of the features of moderate concussion in humans. The model permits long term examination of subsequent cerebrovascular pathophysiological sequelae in conscious, unrestrained animals.
(§2) A rat anesthetized with halothane was mounted in a prone position on the test board and the head was fixed in position by means of the bite plate 30 over which the upper incisors were engaged as shown in FIG. 1c. The board angle of recline and the axis of pendulum rotation were adjustable to permit a flat or angled (3°-5° ) strike on the chosen head impact site. The optimum applied force/angle was selected from the nomogram. The pendulum was raised to the desired angle and released through a quick-release mechanism to fall into impact with the head. Forces developed by this means ranged from 60 to 85 pounds. The model was tested under the above conditions for its ability to produce changes in regional cerebral permeability (FIG. 3), blood flow (FIG. 4), as well as, intracranial pressure (FIGS. 6, 7 and 8).
Regional permeability of slowly diffusible substances, such as sucrose, together with the brain intravascular space was estimated by methods of Rapoport (15). The theoretical bases for such measurements have been elegantly described by Blasberg, Patlack and Fernstermacher (16).
Typically a tracer amount of a slowly diffusible indicator is injected intravenously and the arterial plasma concentration is followed until the animal is killed 10 minutes later, time T, so that only a small amount of the tracer has accumulated in the brain. Under these circumstances, brain concentration remains insignificant as compared to plasma concentration, and back-diffusion from brain to plasma can be ignored. Brain uptake of tracer can be given as follows:
where Kt is an "apparent", unidirectional, blood-to-brain transfer constant and Cplasma is the indicator concentration in the plasma, its major exchangeable compartment. […]
Brain vascular volume (BVS) and permeability were determined simultaneously utilizing modified methods of Rapoport, as described below (18). […] Moreover, estimates of BVS determined with either tracer are in agreement with published values obtained at more conventional time-intervals, e.g., two to ten minutes, after intravenous injection with an error of less than 4%. […]
The experimental protocol for the measurement of blood-to-brain transfer of diffusion-limited substances such as sucrose involved surgical implantation of catheters, one in a femoral vein, the other in the opposite femoral artery, under halothane anesthesia. […] The behavior of the animal was carefully monitored. […]

[2] = tested on: cerebral blood flow; assay: Regional cerebral blood flow, 14C-iodoantipyrine bolus fractionation, 2 hours after closed-head trauma; format: in vivo, rat (Wistar)
[3] = Arterial blood-gas and cardiovascular parameters 2 hours after closed-head trauma; format: in vivo, rat (Wistar)
[4] = tested on: intracranial pressure; format: in vivo, rat (Wistar)
Text: as §1, §2
Intracranial pressures were determined in separate but identically treated animals. A 1 mm hole was drilled into the interparietal plate of the rat skull at a point 2 mm from the midline and 2 mm caudal to the suture. A stainless steal cannula constructed from a 23 gauge needle with an 8 cm extension of PE50 polyethylene tubing filled with isotonic saline was inserted epidurally into the craniotomy. A stainless steel screw was placed opposite to the cannula. Dental acrylic cement sealed the cannula and anchor screw in place. A Camino 431 miniature pressure sensor was inserted into the tubing and pressure was measured on Camino 420 Digital Pressure Monitor System. Intracranial pressure measurements were monitored from 5 minutes before and up to […] following head impaction.
On the day of administration, the tube was removed from the refrigerator, placed on ice, and dissolved in 1.1 ml of sterile bacteriostatic saline (benzyl alcohol added). At the time of the injection, either 0.1 or 0.2 ml of the solution was drawn into a 1 ml disposable tuberculin syringe, with a 25 gauge needle attached. Injection was subcutaneous in the dorsal neck area of the animal.
In the intracranial pressure experiments, animals were injected at 5 minutes, 6 hours and 24 hours post trauma.

[5] = tested on: cisplatin neurotoxic side effects; details: rats; cited from earlier work
[6] = tested on: cisplatin neuropathy; details: cited from earlier work
[7] = tested on: dementias; alcoholic inebriation; details: relatively large doses in humans; cited from earlier work

SMILES: CS(=O)(=O)CC[C@H](N)C(=O)N[C@@H](CCC(=O)O)C(=O)N[C@@H](Cc1c[nH]cn1)C(=O)N[C@@H](Cc1ccccc1)C(=O)N[C@H](CCCCN)C(=O)N[C@@H](Cc1ccccc1)C(=O)O [Organon 2766, Met (O2) Glu-His-Phe-D-Lys-Phe] (H-[Met(O2)]EHF[dK]F-OH)
- mean trauma-induced increase in blood brain barrier permeability at 2 hours ([1]; 27.2 ug s.c., impacted rats, trauma alone 32%, p <0.01): 8.7%
- BBB permeability in control non-impacted animals receiving the analog ([1]; 27.2 ug, the 7 tissues in which BBB increased in impacted treated animals): also increased
- effectiveness of injection at five minutes versus 30 minutes post impact ([1]; 13.6 or 27.2 ug s.c., two hour permeability and blood flow experiments): equally effective
- effect on permeability, 27.2 ug dose compared with 13.6 ug dose ([1]; s.c., 2 hour permeability experiments): slightly more effective
- increase of cerebral blood flow ([2]; control, non-impacted rats): 7.3%
- blood flow in parietal and frontal cortical tissues and callosal white matter ([2]; impacted animals): either increased or returned to control values
- mean reduction of cerebral blood flow compared to control non-impacted animals ([2]; impacted rats, 27.2 ug s.c., 2 hours, trauma alone 12.4%, P <0.001): 5.4%
- Hematocrit ([3]; any of the groups compared to control animals): not significantly affected
- increase of cardiac output ([3]; control animals): 13%
- pO2 ([3]; control animals receiving the peptide): increased
- pCO2 decrease ([3]; control animals receiving the peptide, p <0.05): 6%
- pH ([3]; impacted animals): unchanged
- cardiac output after head trauma ([3]; impacted animals, trauma caused a non-significant decrease): restored
- pCO2 ([3]; impacted rats compared to saline control non-impacted animals): increased, but not significantly
- pO2 rise ([3]; impacted rats, 2 hours, significant): 5%
- pH increase ([3]; non-impacted animals, significant): 1%
- ICP at 24 hours without the 6 hour injection ([4]; animals receiving only the 5 minute injection, decreased following the 24 hour injection): elevated
- early rapid rise of ICP to about 10 mmHG at 6 hours ([4]; moderate concussion): did not affect
- mean ICP levels for up to 6 days ([4]; moderate concussion, s.c. at 5 minutes, 6 hours and 24 hours post-injury): below 10 mmHg
- secondary rise in ICP after 6 hours ([4]; s.c. at 5 minutes, 6 hours and 24 hours post-injury): no secondary rise
- neurotoxic side effects of cisplatin [5]: prevented
- neurologic signs and symptoms ([6]; high dose group, p <0.05): significantly fewer
- cisplatin neuropathy ([6]; women with ovarian cancer, 0.25 and 1.0 mg/ml at 1.0 ml/meter^2): attenuated
- treating alcoholic inebriation [7]: not effective
- treating dementias [7]: not effective
